Results on 58 compounds are retold here after PubChem BioAssay AID2685 (National Center for Advancing Translational Sciences (NCATS), 2010).

Structures are written as SMILES. The list shows a part of the results. These are further read-outs of the screen, such as a control signal, another cell line or another target. No call is given for them. Compounds called inactive in the main read-out are mostly missing here. Potencies come from curve fits of mixed quality, noted in brackets.

A short description of this assay: qHTS Assay for Lipid Storage Modulators in Drosophila S3 Cells.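 As to cell number change: cells counted by Cell Tracker Red CMTPX staining in the red channel.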 To be noted: BODIPY lipid droplet fluorescence, 18-24 h; for cell number change: measured here: cell count max response, cells fed with added oleic acid. An outline of the steps: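 Drosophila S3 cells loaded with oleic acid (400 uM, as added) and compounds at several concentrations; lipid droplets imaged by 488-nm laser-scanning cytometry, 500–530 nm intensity and object ratio to cell channel. Percent activity normalized to 20 uM Triacsin C.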
Background: qHTS replaces the single test concentration by a dilution series.

Where [1] appears, read: measured here: lipid fluorescence (Fed channel) AC50, cells fed with added oleic acid.
Where [2] appears, read: measured here: cell number channel AC50, cells fed with added oleic acid.

As for `COc1cc(/C=C/C(=O)O)cc2c1OCCO2`, the cell number change is -3.38%. Under setting [1], the AC50 (as a rule, the midpoint of the concentration-response curve, whichever way the signal moves) was 0.731 µM [falling, full curve].

As for `COC(=O)c1cc2sccc2n1Cc1ccc(C)cc1`, the cell number change is -26.5%. Also, the half-maximal activity concentration (AC50) under setting [1] is 32.6 µM [falling, single point].

Consider `COc1ccc(-c2csc(NC(=O)c3ccccc3F)n2)cc1`, for which the cell number change stood at 13.1%. Under setting [2], the half-maximal activity concentration (AC50) is 1.46 µM [rising, partial curve, poor fit].

On to `CCOC(=O)C(C)n1cnc2c(nnn2-c2cccc(Cl)c2)c1=O` (stereo not drawn), for which the cell number change is -1.71%. Also, the half-maximal activity concentration (AC50) under setting [1] was 20.6 µM [rising, single point].

`CCOc1ccc(S(=O)(=O)NC(=O)c2ccccc2)cc1`: the cell number change turned out to be 27.9%. Also, under setting [1], the half-maximal activity concentration (AC50) is 0.00461 µM [rising, full curve, poor fit].

Turning to `Cc1ccc(OCc2ccc(C(=O)N3CCOCC3)cc2)cc1C`, the cell number change was -32.6%. Besides, the AC50 under setting [2] is 29.1 µM [falling, single point].

As for `CCOc1ccc(C(C)=O)cc1COC(=O)c1ccc2c(c1)NC(=O)CS2`, the cell number change is 1.66%. Moreover, the AC50 under setting [1] was 6.51 µM [rising, single point].

Regarding `CC(C)Cn1c(Cc2ccccc2)n[nH]c1=S`, the cell number change was found to be 20.4%.

Regarding `CCCn1ncc(CN2CCC(n3nccc3NC(=O)c3ccccc3OC)CC2)c1C`, the cell number change amounted to 2.83%.

Regarding `COc1ccc(CC(=O)Nc2ncc([N+](=O)[O-])s2)cc1OC`, the cell number change is 9.22%. Besides, the AC50 under setting [1] is 0.731 µM [rising, full curve, poor fit].

Take `COc1cc(OC)nc(NC(=O)COC(=O)c2cccc(Cl)c2)n1`: the cell number change is 26.8%.

Regarding `COc1ccc(NC(=O)c2nn(C)c(=O)c3ccccc23)cc1S(=O)(=O)Nc1ccccc1Cl`, the cell number change was found to be 125%. Also, the half-maximal activity concentration (AC50) under setting [2] was 2.31 µM [rising, full curve]. Besides, under setting [1], the AC50 is 3.66 µM [rising, partial curve].

Consider `O=C(c1cccc(S(=O)(=O)N2CCOCC2)c1)N(Cc1nnc(-c2ccccc2Cl)o1)C1CC1`, for which the cell number change was -99.1%. Besides, the concentration at half-maximal activity (AC50) under setting [2] was 16.4 µM [falling, single point]. Under setting [1], the AC50 was 8.2 µM [falling, partial curve].

`COC(=O)c1cccc(NC(=O)c2ccc(S(=O)(=O)N3CCN(C)CC3)cc2)c1`: the concentration at half-maximal activity (AC50) under setting [1] is 1.84 µM [rising, partial curve, poor fit].

Consider `Cc1ccccc1C(=O)NC[C@@H]1CCCN2CCCC[C@H]12`, for which the cell number change is 21.6%. The concentration at half-maximal activity (AC50) under setting [1] is 2.91 µM [rising, single point].

With `Cc1cc(C)nc(NS(=O)(=O)c2ccc(N/C=C/C(=O)c3ccc(Cl)cc3)cc2)n1`, the cell number change is -56.7%. Besides, the AC50 under setting [2] is 29.1 µM [falling, single point]. Besides, the AC50 under setting [1] is 16.4 µM [falling, single point].

Regarding `NC(=O)COC(=O)c1ccc(S(=O)(=O)NCc2ccco2)cc1`, the cell number change was determined as 48%. Also, under setting [2], the AC50 is 0.0651 µM [falling, partial curve, poor fit].

Consider `CN1CCN(c2ccccc2NC(=O)c2ccc(-c3cccc([N+](=O)[O-])c3)o2)CC1`, for which the cell number change was -8.99%. Further, under setting [1], the half-maximal activity concentration (AC50) is 32.6 µM [falling, single point].

Turning to `CC(=O)Nc1ccc(Nc2nc(-c3sc(C)nc3C)cs2)cc1`, the cell number change was -37%. Also, the concentration at half-maximal activity (AC50) under setting [2] was 0.326 µM [falling, full curve]. For the same compound, the half-maximal activity concentration (AC50) under setting [1] is 29.1 µM [falling, single point].

In the case of `Cn1c(SCc2ccc(C#N)cc2)nnc1-c1cccc(Cl)c1`, the cell number change is 3.2%. Moreover, the AC50 under setting [2] was 2.06 µM [rising, single point].

As for `COC(=O)C1CCN(C(=O)COC(=O)c2oc3ccccc3c2C)CC1`, the cell number change worked out at 33%. Moreover, under setting [2], the concentration at half-maximal activity (AC50) was 13 µM [rising, single point]. In addition, the concentration at half-maximal activity (AC50) under setting [1] was 18.4 µM [rising, partial curve, poor fit].

As to `CC(=O)c1ccc(NS(=O)(=O)c2ccc(C(C)(C)C)cc2)cc1`, the cell number change is -19.3%. Besides, the concentration at half-maximal activity (AC50) under setting [1] was 25.9 µM [falling, single point].

As to `O=C(CSc1ccc2nnc(-c3cccnc3)n2n1)NCc1ccc2c(c1)OCO2`, the half-maximal activity concentration (AC50) is 1.03 µM [rising, partial curve] under setting [2] and 0.82 µM [rising, full curve] under setting [1].

With `C=CCc1ccccc1Oc1cc(OC)nc(N)n1`, the cell number change was found to be 3.34%. Also, under setting [1], the concentration at half-maximal activity (AC50) was 2.59 µM [rising, full curve].

`COc1ccc(NC(=O)COc2nsnc2N2CCCCC2)cc1`: the cell number change is -2.18%. Besides, under setting [1], the half-maximal activity concentration (AC50) is 2.59 µM [rising, partial curve].

Regarding `COc1ccc(C(=O)NCCc2nnc3ccc(SCC(=O)Nc4ccccc4F)nn23)cc1`, the cell number change is -13%.

Consider `Cc1cccc(NC(=O)c2nc[nH]c2C(=O)N[C@@H](CC(C)C)C(=O)OC(C)(C)C)c1`, for which the cell number change is -1.71%.

On to `CC1CCN(S(=O)(=O)c2ccc3c(c2)NC(=O)CS3)CC1`, for which the cell number change turned out to be 7.34%. Besides, the AC50 under setting [2] was 0.00651 µM [rising, full curve, poor fit].

Turning to `CCOc1ccc(S(=O)(=O)c2c[nH]c3ccc(C)cc3c2=O)cc1`, the cell number change is 25.2%. Besides, the concentration at half-maximal activity (AC50) under setting [1] is 16.4 µM [rising, partial curve, poor fit].

Take `CC(OC(=O)CCCc1nc2ccccc2s1)C(N)=O` (stereo not drawn): under setting [1], the AC50 was 0.82 µM [falling, full curve, poor fit].

Regarding `CNC(=S)N(CCCn1ccnc1)Cc1c(F)cccc1Cl`, under setting [1], the concentration at half-maximal activity (AC50) was 4.61 µM [falling, single point].

As to `CC(=O)c1cnc(Nc2cccc(Cl)c2Cl)s1`, the cell number change worked out at 5.7%. Further, under setting [1], the half-maximal activity concentration (AC50) is 0.731 µM [rising, single point].

Take `CCCN(C(=O)COC(=O)COc1c(C)cccc1C)c1c(N)n(Cc2ccccc2)c(=O)[nH]c1=O`: the cell number change is -37.5%. Further, the concentration at half-maximal activity (AC50) under setting [2] was 14.6 µM [falling, single point]. The AC50 under setting [1] is 20.6 µM [falling, single point].

As for `COc1ccc(-c2noc(-c3cccc(Cl)c3)n2)cc1OC`, the cell number change came to 38.9%. For the same compound, the AC50 under setting [2] was 29.1 µM [rising, single point]. Also, under setting [1], the AC50 was 2.31 µM [rising, single point].

With `CSc1nsc(SC)c1NC(=O)OCCc1ccccn1`, the cell number change is -17.6%. For the same compound, the AC50 under setting [2] was 5.17 µM [falling, single point]. In addition, the concentration at half-maximal activity (AC50) under setting [1] is 4.11 µM [falling, single point].

With `COc1ccc(N2CC(O)=C(c3n(C)c4ccccc4[n+]3C)C2=N)cc1`, the cell number change was -53.9%. For the same compound, under setting [2], the AC50 was 29.1 µM [falling, single point]. Besides, under setting [1], the AC50 was 23.1 µM [falling, single point].

As for `O=C(NCc1ccccc1)C(c1ccc(O)cc1)N(C(=O)c1cnccn1)c1ccccc1` (stereo not drawn), the cell number change worked out at 18%. Besides, under setting [1], the AC50 is 29.1 µM [rising, single point].

For the compound `CCc1cccc2c(C#N)cn(CC(=O)NCCOC)c12`, the AC50 under setting [2] is 0.092 µM [rising, full curve, poor fit].

For the compound `CCc1ccc(C2=NN(S(C)(=O)=O)C(c3cccs3)C2)cc1` (stereo not drawn), the cell number change came to 536%. Besides, the concentration at half-maximal activity (AC50) under setting [2] was 18.4 µM [rising, partial curve]. The half-maximal activity concentration (AC50) under setting [1] is 29.1 µM [rising, single point].

Turning to `COc1cc(CNC2CCCC2)cc(Br)c1OCC(=O)Nc1ccccc1C`, the cell number change is 19.7%.

`CC(C)[C@H](NC(=O)[C@H]1N2C(=O)c3ccccc3C2SC1(C)C)C(=O)NCc1ccco1` (stereo partly drawn): the cell number change was -9.44%. Besides, the half-maximal activity concentration (AC50) under setting [1] is 18.4 µM [falling, single point].

For `COc1cccc2sc(NC(=O)c3ccc(S(=O)(=O)N4CCOCC4)cc3)nc12`, the cell number change is 8.47%. The AC50 under setting [1] was 2.31 µM [rising, partial curve].

For the compound `O=C(Nc1ccc2nc3n(c(=O)c2c1)CCCCC3)c1ccccc1[N+](=O)[O-]`, the cell number change was -39.9%. The half-maximal activity concentration (AC50) under setting [2] is 13 µM [falling, single point]. Moreover, the AC50 under setting [1] is 2.31 µM [falling, partial curve].

Take `Cc1noc(C)c1C(=O)Nc1ccc(F)cc1F`: the cell number change is 21%. Moreover, under setting [1], the AC50 is 1.46 µM [falling, partial curve].

As to `CCOc1ccc(NC(=O)Nc2ccc(Cc3ccncc3)cc2)cc1`, the cell number change is -0.604%. Under setting [1], the half-maximal activity concentration (AC50) was 1.84 µM [rising, partial curve, poor fit].

Regarding `COc1ccc(N2C(=O)CC(N3CCC(C(N)=O)CC3)C2=O)cc1` (stereo not drawn), the cell number change is -13.9%. Also, under setting [2], the AC50 was 2.06 µM [falling, single point].

For `CN(C)CCCN(C(=O)c1ccc(C(=O)c2ccccc2)cc1)c1nc2cc3c(cc2s1)OCO3`, the cell number change was -33.4%. Moreover, the AC50 under setting [2] is 1.16 µM [falling, full curve, poor fit].

Take `COc1ccc(S(=O)(=O)/N=C2/NC(=O)/C(=C/c3ccco3)S2)cc1`: the cell number change was -7.65%.

Take `O=C(c1ccco1)N1CCN(C(=O)C2c3ccccc3Oc3ccccc32)CC1`: the cell number change was -12%. The concentration at half-maximal activity (AC50) under setting [1] was 29.1 µM [falling, single point].

With `C=CCn1c(SCC(=O)Nc2ccccc2C)nc(O)cc1=O`, the cell number change was -19.1%. Besides, the AC50 under setting [1] was 6.51 µM [falling, single point].

For the compound `COC(=O)c1ccc(OCC(=O)c2cccc(OC)c2)cc1`, the cell number change is 83.3%. Moreover, under setting [2], the half-maximal activity concentration (AC50) was 23.1 µM [rising, single point]. Besides, under setting [1], the half-maximal activity concentration (AC50) is 23.1 µM [rising, partial curve].

On to `c1ccc(C2=Nc3ccccc3SC2c2nc3ccccc3[nH]2)cc1` (stereo not drawn), for which the cell number change was -32.7%. The AC50 under setting [2] was 32.6 µM [falling, single point].

For `O=C(NCc1ccon1)C1CCC(=O)N(CCc2cccc(F)c2)C1` (stereo not drawn), the cell number change was found to be 1.1%. The half-maximal activity concentration (AC50) under setting [1] is 29.1 µM [rising, single point].

With `Cc1ccc(N(C(C)C(=O)NCc2ccncc2)S(C)(=O)=O)cc1C` (stereo not drawn), the cell number change was -7.71%. Also, the concentration at half-maximal activity (AC50) under setting [1] is 0.291 µM [falling, partial curve, poor fit].

As for `CSc1ccccc1OCc1cc(C(=O)N2CCCC(C)C2)no1` (stereo not drawn), the cell number change was -32.8%. Also, the concentration at half-maximal activity (AC50) under setting [2] is 29.1 µM [falling, single point]. For the same compound, the AC50 under setting [1] is 29.1 µM [falling, single point].

For `COc1ccc(-c2csc(Nc3cccnc3)n2)cc1`, the cell number change was -73.7%. Under setting [2], the AC50 was 20.6 µM [falling, single point].

With `C=CCSc1nnc2c(n1)OC(c1ccco1)Nc1ccccc1-2` (stereo not drawn), the cell number change was -16.4%. For the same compound, under setting [1], the AC50 is 18.4 µM [rising, single point].

For the compound `CC1CCCCN1C(=O)COC(=O)c1cc([N+](=O)[O-])ccc1N` (stereo not drawn), the cell number change is 31.6%. Also, under setting [2], the concentration at half-maximal activity (AC50) was 9.2 µM [rising, partial curve].
